The values that follow come from publication PMC7352286, “The Heterooligomerization of Human Small Heat Shock Proteins Is Controlled by Conserved Motif Located in the N-Terminal Domain” (International Journal of Molecular Sciences, 2020).

Chains of the proteins cited; added tags and fusions are not shown. Lines headed by an entry give the natural chain unless they say otherwise; changes in a name come on top. A line that says so, or that is headed by a name, gives the form on record, which may keep a tag or linker.
UniProt P04792: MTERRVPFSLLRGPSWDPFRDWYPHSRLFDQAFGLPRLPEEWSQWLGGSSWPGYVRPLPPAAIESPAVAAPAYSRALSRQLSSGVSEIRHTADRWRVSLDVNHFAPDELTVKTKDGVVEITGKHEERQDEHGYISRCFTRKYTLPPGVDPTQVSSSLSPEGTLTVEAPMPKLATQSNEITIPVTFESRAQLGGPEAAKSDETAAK
HspB1 Δ26–30 (P04792, form named): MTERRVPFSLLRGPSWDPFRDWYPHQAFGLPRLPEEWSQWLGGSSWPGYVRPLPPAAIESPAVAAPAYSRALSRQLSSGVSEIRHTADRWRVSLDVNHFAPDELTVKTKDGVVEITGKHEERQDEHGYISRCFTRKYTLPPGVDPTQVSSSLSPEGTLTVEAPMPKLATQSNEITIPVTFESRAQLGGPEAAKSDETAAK

Residue numbers refer to the chain shown, from its start. No constants are given. Whether binding was seen depends on the method and setting.

Assay [1] deals with T1, wild-type human small heat shock protein HspB8 (human) (UniProt Q9UJY1).
T1 sequence: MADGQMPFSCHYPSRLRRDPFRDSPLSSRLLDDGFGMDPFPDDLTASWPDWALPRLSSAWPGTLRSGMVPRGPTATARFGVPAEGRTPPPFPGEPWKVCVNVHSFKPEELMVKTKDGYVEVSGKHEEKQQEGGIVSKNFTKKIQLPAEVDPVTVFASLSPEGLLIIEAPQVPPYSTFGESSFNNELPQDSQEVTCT
Nature of the assay: SEC; equimolar mixture (30–40 µM each), reduced, preincubated 1 h at 42 °C in buffer B (20 mM Tris-acetate, 150 mM NaCl, 0.1 mM EDTA, 15 mM mercaptoethanol); Superdex 200 HR 10/30; fractions on SDS gels; correlation coefficient and molar ratio from band intensities; both purified.

Assay [2] deals with T1, wild-type human small heat shock protein HspB8 (human). Nature of the assay: SEC; equimolar mixture (30–40 µM each), reduced, preincubated 1 h at 4 °C in buffer B (20 mM Tris-acetate, 150 mM NaCl, 0.1 mM EDTA, 15 mM mercaptoethanol); Superdex 200 HR 10/30; fractions on SDS gels; correlation coefficient and molar ratio from band intensities; both purified. (In general: SEC sorts molecules by how far they enter the pores of the column.)

In assay [3] the target is T2, wild-type human small heat shock protein HspB5 (human) (UniProt P02511).
T2 sequence: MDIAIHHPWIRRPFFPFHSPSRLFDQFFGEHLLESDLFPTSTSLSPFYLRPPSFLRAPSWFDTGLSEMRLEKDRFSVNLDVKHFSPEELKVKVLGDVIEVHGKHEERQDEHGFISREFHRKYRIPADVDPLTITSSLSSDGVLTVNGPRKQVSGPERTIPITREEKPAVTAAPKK
In words: condition: only preincubated at 4 °C (without heating); 30–40 µM each; ion-exchange chromatography; equimolar mixture (30–40 µM each), reduced, preincubated 1 h at 4 °C in buffer D (20 mM phosphate pH 6.8, 0.1 mM PMSF, 15 mM mercaptoethanol); DEAE HiTrap, gradient 0–500 mM NaCl; fractions on SDS gels; correlation coefficient and molar ratio from band intensities; both purified.

Assay [4] addresses T3, HspB8 R29A (human) (UniProt Q9UJY1).
T3 sequence: T1 sequence with R29A
Nature of the assay: SEC; equimolar mixture (30–40 µM each), reduced, preincubated 1 h at 4 °C in buffer B (20 mM Tris-acetate, 150 mM NaCl, 0.1 mM EDTA, 15 mM mercaptoethanol); Superdex 200 HR 10/30; fractions on SDS gels; correlation coefficient and molar ratio from band intensities; both purified.

The target of assay [5] is T4, HspB8 Δ28–32 (human) (UniProt Q9UJY1).
T4 sequence: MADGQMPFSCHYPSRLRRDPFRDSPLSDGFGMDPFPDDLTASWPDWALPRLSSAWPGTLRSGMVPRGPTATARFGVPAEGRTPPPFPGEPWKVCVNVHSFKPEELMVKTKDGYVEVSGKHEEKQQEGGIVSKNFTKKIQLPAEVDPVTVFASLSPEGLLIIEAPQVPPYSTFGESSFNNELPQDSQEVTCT
The assay is described as above.

The target in a further assay is T5, HspB6 R27A (human, UniProt O14558 1-160, R27A).
T5 construct: also called R/A HspB6; R/A mutant of HspB6; source: E. coli BL21(DE3) pLysS, purified (ammonium sulfate, HiTrap Phenyl-Sepharose, Superdex 200)
T5 sequence (looked up): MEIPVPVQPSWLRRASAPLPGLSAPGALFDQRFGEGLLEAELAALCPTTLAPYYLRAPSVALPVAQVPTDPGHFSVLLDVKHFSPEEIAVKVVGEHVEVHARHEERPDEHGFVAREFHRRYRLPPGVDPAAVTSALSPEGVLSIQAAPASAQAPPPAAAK
Nature of the assay: condition: only preincubated at 4 °C (without heating); 30–40 µM each; SEC; equimolar mixture (30–40 µM each), reduced, preincubated 1 h at 4 °C in buffer B (20 mM Tris-acetate, 150 mM NaCl, 0.1 mM EDTA, 15 mM mercaptoethanol); Superdex 200 HR 10/30; fractions on SDS gels; correlation coefficient and molar ratio from band intensities; both purified.

Another assay has as its target T6, HspB6 Δ26–30 (human, UniProt O14558 1-160, Δ26–30).
T6 construct: also called Δ HspB6; Δ mutant of HspB6; source: E. coli BL21(DE3) pLysS, purified (ammonium sulfate, HiTrap Phenyl-Sepharose, Superdex 200)
T6 sequence (looked up): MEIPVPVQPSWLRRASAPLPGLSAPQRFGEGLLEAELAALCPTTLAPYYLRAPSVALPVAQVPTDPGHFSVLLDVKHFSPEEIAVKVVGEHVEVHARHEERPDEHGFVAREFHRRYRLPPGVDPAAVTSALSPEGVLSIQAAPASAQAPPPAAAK
Described as above.

Assay [6] concerns the target T7, wild-type human small heat shock protein HspB6 (human) (UniProt O14558).
T7 sequence: T5 sequence (looked up) with A27R
The assay is described as above.

In assay [7] the target is T3, HspB8 R29A (human). Nature of the assay: SEC; equimolar mixture (30–40 µM each), reduced, preincubated 1 h at 42 °C in buffer B (20 mM Tris-acetate, 150 mM NaCl, 0.1 mM EDTA, 15 mM mercaptoethanol); Superdex 200 HR 10/30; fractions on SDS gels; correlation coefficient and molar ratio from band intensities; both purified.
The target of assay [8] is T1, wild-type human small heat shock protein HspB8 (human). Described as above. This is another data set of the same source.
Assay [9] concerns the target T4, HspB8 Δ28–32 (human). Described as above.

In the case of HspB1 R27A (from UniProt P04792 1-205), the binding entry was “no binding (tested: 30–40 µM each)” in [1], “no binding (tested: 30–40 µM each)” in assay [2] and “no binding” in assay [3].

In the case of “HspB1 Δ26–30 (from UniProt P04792 1-205)”, the binding entry was “no binding (tested: 30–40 µM each)” in assay [1], “no binding (tested: 30–40 µM each)” in [2] and “no binding” in assay [3].

B1: wild-type human small heat shock protein HspB5 (natural protein, UniProt P02511 1-175, looked up)
chain: T2 sequence
notes: WT cDNA in pET22b or pET23a, parent of the full-size mutants; No tag is named; Forms large homooligomers; also called WT HspB5; source: E. coli BL21(DE3) pLysS, purified (ammonium sulfate, HiTrap Q, Superdex 200)
Turning to B1, the binding entry is reported as “no binding (tested: 30–40 µM each)” with HspB8 R29A (human) [4]; “no binding (tested: 30–40 µM each)” in [2]; “no binding (tested: 30–40 µM each)” in the assay with HspB8 Δ28–32 (human) [5]; “no binding” with HspB6 R27A; “no binding” with HspB6 Δ26–30; “no binding” in assay [6]. Moreover, the binding entry (with HspB8 R29A (human) [7]; in assay [8]; with HspB8 Δ28–32 (human) [9]) was “no binding (tested: 30–40 µM each)” in each case.

B2: HspB5 R22A (natural protein, human, UniProt P02511 1-175, looked up)
chain: T2 sequence with R22A
notes: also called R/A HspB5; R/A mutant of HspB5; source: E. coli BL21(DE3) pLysS, purified (ammonium sulfate, HiTrap Q, Superdex 200)
In the case of B2, the binding result in assay [2] was “no binding (tested: 30–40 µM each)”; in assay [6] it was “no binding”; in [8], “no binding (tested: 30–40 µM each)”.

B3: HspB5 Δ21–25 (natural protein, human, UniProt P02511 1-175, looked up)
chain: MDIAIHHPWIRRPFFPFHSPQFFGEHLLESDLFPTSTSLSPFYLRPPSFLRAPSWFDTGLSEMRLEKDRFSVNLDVKHFSPEELKVKVLGDVIEVHGKHEERQDEHGFISREFHRKYRIPADVDPLTITSSLSSDGVLTVNGPRKQVSGPERTIPITREEKPAVTAAPKK
notes: also called Δ HspB5; Δ mutant of HspB5; source: E. coli BL21(DE3) pLysS, purified (ammonium sulfate, HiTrap Q, Superdex 200)
As to B3, the figures for the binding entry in assay [2], in assay [6] and in assay [8] were “no binding (tested: 30–40 µM each)”, “no binding” and “no binding (tested: 30–40 µM each)”, respectively.
